We go through 27 compounds from PubChem BioAssay AID256 (DTP/NCI, 2004).

SMILES strings stand for the structures. The list is a part of this screen's results and no random one: it is rich in T/C values a quarter to a half above the control, in often repeated tests (any T/C) and in doses without a T/C. Further doses and runs are listed elsewhere. T/C gives the treated animals as a percentage of the vehicle group. Some doses have a count of surviving animals in place of a T/C: the source holds a T/C of zero for them, seemingly a mark for toxic or unscored doses. Some survivor counts are full or nearly so, which does not show that the dose was tolerated: survival well below the control is almost never listed, so the zero probably covers shortened survival too. Counts of survivors are from the toxicity check (mostly the fifth day) where no day follows; animals may have died later. Schedule codes are those of the source, taken here to give the interval after Q, in days (D) or hours (H), and the number of doses after X. Some entries hold several experiments; the results are listed from low to high. For survival time, this PubChem deposit counts one and a half times the control or more as active, and values a quarter to a half above the control carry no call in these data; other NCI protocols may use other cut-offs. Counts like (3×) say how often a value occurs here. Some T/C values are followed by the survivors on the day toxicity was checked, most often the fifth; where none is given, no animal had died by that day.

This test relates to CD2F1 mice, L1210 leukemia ip, survival T/C. Description: NCI In Vivo Anticancer Drug Screen. Data for tumor model L1210 Leukemia (intraperitoneal) in CD2F1 (CDF1) mice. As to conditions: higher T/C = longer survival. A digest of the protocol:
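Activity against a transplanted murine tumor was judged by comparing the compound group with a vehicle group. The outcome in the treated animals was divided by that in the controls.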

The mark [1] stands for this setting: T/C endpoint: mean survival time, dose: 200.0 mg/kg/injection, schedule: Q04DX003 (ip), vehicle: saline.
[2] abbreviates: T/C endpoint: mean survival time, dose: 200.0 mg/kg/injection, schedule: Q04DX003 (ip), vehicle: saline with Tween-80.
Setting [3] is: T/C endpoint: mean survival time, dose: 400.0 mg/kg/injection, schedule: Q04DX003 (ip), vehicle: saline with Tween-80.
Where [4] appears, read: T/C endpoint: mean survival time, dose: 200.0 mg/kg/injection, schedule: Q01DX009 (ip), vehicle: saline with Tween-80.
[5] abbreviates: T/C endpoint: mean survival time, dose: 300.0 mg/kg/injection, schedule: Q01DX001 (ip), vehicle: saline.
The mark [6] stands for this setting: T/C endpoint: mean survival time, dose: 150.0 mg/kg/injection, schedule: Q01DX001 (ip), vehicle: saline.

Regarding `OCC1OC(n2ncc3c(NO)ncnc32)C(O)C1O` (stereo not drawn), the survivor count is on record as 2 of 3 (T/C endpoint: mean survival time, dose: 25.0 mg/kg/injection, schedule: Q01DX005 (ip), vehicle: water); 0 of 3 (T/C endpoint: mean survival time, dose: 50.0 mg/kg/injection, schedule: Q01DX005 (ip), vehicle: water); 1 of 3 (T/C endpoint: mean survival time, dose: 100.0 mg/kg/injection, schedule: Q01DX005 (ip), vehicle: water); 0 of 3 (T/C endpoint: mean survival time, dose: 200.0 mg/kg/injection, schedule: Q01DX005 (ip), vehicle: water); 0 of 3 (T/C endpoint: mean survival time, dose: 400.0 mg/kg/injection, schedule: Q01DX005 (ip), vehicle: water).
Consider `CC(=O)C(Cl)C(C)=O.CC(=O)C(Cl)C(C)=O.CO.CO.[Ni]`, for which the survivor count is given as 2 of 6 (T/C endpoint: mean survival time, dose: 100.0 mg/kg/injection, schedule: Q04DX003 (ip), vehicle: saline) and 0 of 6 under setting [1].
In the case of `CSc1ccc(C(c2ccc(SC)cc2)C(Cl)(Cl)Cl)cc1`, the survivor count under setting [2] is 6 of 6.
For `[Cl][Pt]([Cl])[Cl].[NH-]C1CN2CCC1CC2` (stereo not drawn), the T/C (T/C endpoint: mean survival time, dose: 10.0 mg/kg/injection, schedule: Q04DX003 (ip), vehicle: saline with Tween-80) was 139 % of control; the T/C (T/C endpoint: mean survival time, dose: 20.0 mg/kg/injection, schedule: Q04DX003 (ip), vehicle: saline with Tween-80) was 140 % of control; the T/C (T/C endpoint: mean survival time, dose: 40.0 mg/kg/injection, schedule: Q04DX003 (ip), vehicle: saline with Tween-80) was 148 % of control.
As to `COc1ccc(OC)c(C2N(Cc3ccccc3N(C)C)CCCN2Cc2ccccc2N(C)C)c1`, the survivor count under setting [3] is on record as 5 of 6.
Consider `NC(=O)c1[nH]nc(C2OC(COP(=O)(O)O)C(O)C2O)c1O` (stereo not drawn), for which the survivor count is, setting by setting: (T/C endpoint: median survival time, dose: 50.0 mg/kg/injection, schedule: Q01DX005 (ip), vehicle: saline) 6 of 6; (T/C endpoint: median survival time, dose: 100.0 mg/kg/injection, schedule: Q01DX005 (ip), vehicle: saline) 0 of 6.
For `CC(=O)c1ccc([NH-])c([NH-])c1.[Cl][Pt+2][Cl]`, the T/C by setting is: (T/C endpoint: mean survival time, dose: 20.0 mg/kg/injection, schedule: Q01DX009 (ip), vehicle: distilled water + Tween-80) 125 % of control; (T/C endpoint: mean survival time, dose: 40.0 mg/kg/injection, schedule: Q01DX009 (ip), vehicle: distilled water + Tween-80) 130 % of control (2×).
In the case of `O=C(Nc1cccc2ccccc12)OCCCBr`, where the note is “T/C endpoint: mean survival time, dose: 25.0 mg/kg/injection, schedule: Q01DX009 (ip), vehicle: saline with Tween-80”, the survivor count is listed as 3 of 3.
Regarding `CCCCOC(=O)c1ccc(NC(=O)Nc2ccccc2Cl)cc1`, the survivor count under setting [3] is 1 of 6.
Turning to `O=C(/C=C/c1cccnc1)/C=C/c1cccnc1`, the survivor count is given as 3 of 6 (T/C endpoint: mean survival time, dose: 50.0 mg/kg/injection, schedule: Q04DX003 (ip), vehicle: acetone); 6 of 6 (T/C endpoint: mean survival time, dose: 100.0 mg/kg/injection, schedule: Q04DX003 (ip), vehicle: saline with Tween-80); 0 of 6 under setting [2]; 0 of 6 under setting [3].
For `O=NN(CCCl)C(=O)NC1[C@H](O)CCC[C@@H]1O` (stereo partly drawn), the T/C is 126 % of control (T/C endpoint: median survival time, dose: 0.32 mg/kg/injection, schedule: Q01DX009 (ip), vehicle: saline) and 139 % of control (T/C endpoint: median survival time, dose: 0.62 mg/kg/injection, schedule: Q01DX009 (ip), vehicle: saline).
As for `O=[N+]([O-])c1cc(F)ccc1O`, the survivor count by setting is: (T/C endpoint: mean survival time, dose: 50.0 mg/kg/injection, schedule: Q01DX009 (ip), vehicle: saline with Tween-80) 3 of 6; under setting [4], 3 of 6.
For the compound `Nc1cc2c(c[n+](Cc3ccccc3)c3ccccc23)c2ccccc12`, the survivor count (T/C endpoint: mean survival time, dose: 3.13 mg/kg/injection, schedule: Q04DX003 (ip), vehicle: other) is recorded as 3 of 6.
For the compound `CCCCC(CSC#N)SC#N` (stereo not drawn), the survivor count (T/C endpoint: mean survival time, dose: 25.0 mg/kg/injection, schedule: Q04DX002 (ip), vehicle: saline with Tween-80) is 0 of 3 and 1 of 3; the survivor count (T/C endpoint: mean survival time, dose: 50.0 mg/kg/injection, schedule: Q04DX002 (ip), vehicle: saline with Tween-80) is 0 of 3; the survivor count (T/C endpoint: mean survival time, dose: 100.0 mg/kg/injection, schedule: Q04DX002 (ip), vehicle: saline with Tween-80) is 0 of 3.
Regarding `COc1ccc(-c2nc(C)cc3cc(OC)c(OC)cc23)cc1OC`, under “T/C endpoint: mean survival time, dose: 200.0 mg/kg/injection, schedule: Q01DX009 (ip), vehicle: water”, the survivor count was 1 of 6.
With `CSC(=S)N/N=C/c1ccccn1`, the survivor count runs as follows: under setting [4], 1 of 6; under setting [3], 0 of 6.
Regarding `OC1C=CC(O)C1` (stereo not drawn), under setting [5], the survivor count is reported as 0 of 6.
On to `N#CCCCCN=[N+]=[N-]`, for which the survivor count under setting [5] is reported as 1 of 6.
As to `CC(=O)Nc1cc(N(CCOS(C)(=O)=O)CCOS(C)(=O)=O)ccc1N=O`, the T/C (T/C endpoint: mean survival time, dose: 0.75 mg/kg/injection, schedule: Q04DX003 (ip), vehicle: saline) is 125 % of control [5 of 6 alive].
Regarding `CCOP(=O)(OCC)C1=C(P(=O)(OCC)OCC)CCCC1`, the survivor count (T/C endpoint: mean survival time, dose: 75.0 mg/kg/injection, schedule: Q01DX001 (ip), vehicle: other) is reported as 2 of 6; the survivor count (T/C endpoint: mean survival time, dose: 150.0 mg/kg/injection, schedule: Q01DX001 (ip), vehicle: other) was 0 of 6; the survivor count (T/C endpoint: mean survival time, dose: 300.0 mg/kg/injection, schedule: Q01DX001 (ip), vehicle: other) is 0 of 6.
Consider `O=[N+]([O-])c1ccc(CCCl)c(CCl)c1`, for which, under setting [3], the survivor count is on record as 6 of 6.
`CC(C)(C)CC(C)(C)c1ccc(OCCOc2ccc(C(=O)NCCNC(=O)c3ccc4ccccc4c3O)cc2N)cc1`: under “T/C endpoint: mean survival time, dose: 100.0 mg/kg/injection, schedule: Q01DX009 (ip), vehicle: saline with Tween-80”, the survivor count is 6 of 6.
`CCO/C(=C/[S+](C)C)c1ccccc1`: the survivor count runs as follows: (T/C endpoint: mean survival time, dose: 75.0 mg/kg/injection, schedule: Q01DX001 (ip), vehicle: saline) 0 of 6; under setting [6], 0 of 6; under setting [5], 0 of 6.
As to `CC(C)CC(NC(=O)C(N)Cc1ccc(N(CCCl)CCCl)cc1)C(=O)O` (stereo not drawn), the T/C runs as follows: (T/C endpoint: mean survival time, dose: 8.0 mg/kg/injection, schedule: Q04DX003 (ip), vehicle: saline with Tween-80) 129 % of control; (T/C endpoint: mean survival time, dose: 128.0 mg/kg/injection, schedule: Q04DX003 (ip), vehicle: saline with Tween-80) 132 % of control [9 of 10 alive].
Turning to `O=C(O)Cc1cccc2c(=O)cc(-c3ccccc3)oc12`, the T/C is, setting by setting: (T/C endpoint: median survival time, dose: 50.0 mg/kg/injection, schedule: Q01DX009 (ip), vehicle: suspension in saline) 135 % of control; (T/C endpoint: median survival time, dose: 67.0 mg/kg/injection, schedule: Q01DX009 (ip), vehicle: saline with Tween-80) 133 % of control; (T/C endpoint: median survival time, dose: 100.0 mg/kg/injection, schedule: Q01DX009 (ip), vehicle: suspension in saline) 147 % of control. The survivor count (T/C endpoint: median survival time, dose: 200.0 mg/kg/injection, schedule: Q01DX009 (ip), vehicle: suspension in saline) is 4 of 6.
As to `O=C(O)CCC1NCCCO1` (stereo not drawn), the survivor count under setting [1] is given as 6 of 6.
For the compound `CCC(C(=O)OCCNC1CCCCC1)c1ccccc1` (stereo not drawn), the survivor count under setting [6] is 3 of 6 and the survivor count under setting [5] is given as 0 of 6.
